# Assay results: patent US20090227572A1, “TREATMENT OF DIABETIC WOUNDS AND PERIPHERAL NEUROPATHIES” (Cytrx Corporation, priority 2007, published 2009)
# “Also recorded” adds a separate entry of the source. At least one structure is not confirmed: it was looked up by name or label, or the drawing left a doubt.
# Tests used:
# right sciatic nerve = assay: Compound muscle action potential (CMAP) latency test in STZ-diabetic rats (Example 3); type: in vivo, Wistar rats; settings: STZ rats, 10, 20 and 50 mg/kg p.o. daily; days 25 and 39, versus control STZ diabetic rats, FIG. 11
# [1] = test system: BKS.Cg-m^+/+ Lepr^db/J homozygous mice; assay: Wound healing in diabetic db/db mice, daily oral dosing (Example 1); type: in vivo
# [2] = test system: Homozygous, diabetic mice; assay: Wound healing in homozygous diabetic mice, systemic or topical administration (Example 2); type: in vivo; settings: systemic administration, 10 mg/kg IP, b.i.d., 0-20 days, FIG. 6
# Protocol: Homozygous, diabetic mice described above, and wounded in the manner described above in Example 1, were treated by topical administration of iroxanadine or arimoclomol. A 4% w/v aqueous solution of arimoclomol were separately administered topically to the wounded position. […] dosage of iroxanadine was at 10 mg/kg IP, b.i.d., a relatively low concentration.
# STZ-diabetic rats [3] = assay: Body weight and glycemia monitoring in STZ-diabetic rats (Example 3); type: in vivo, Wistar rats
# rat caudal nerve = assay: Sensory nerve conduction velocity (SNCV) in STZ-diabetic rats (Example 3); type: in vivo, Wistar rats; settings: STZ rats, 10, 20 and 50 mg/kg p.o. daily; by day 39, versus control STZ diabetic rats, FIG. 10
# STZ-diabetic rats [4] = assay: Intra-epidermal nerve fiber (IENF) density in hindpaw skin biopsy of STZ-diabetic rats (Example 3); type: in vivo, Wistar rats; settings: day 41, FIG. 12; for IENF density of paw skin sample: STZ rats, 10, 20 and 50 mg/kg p.o. daily
smiles,measurement,setting,value
"c1cncc(C2=NOCC(CN3CCCCC3)N2)c1 (stereo not drawn) [iroxanadine, 5,6-dihydro-5(1-piperidinyl)-methyl-3-(3-pyridyl)-4H-1,2,4-oxadiazine]",CMAP latency,right sciatic nerve,reduction in the compound muscle action potential latency; also recorded: improves sensorimotor dysfunction
same,mean time for closure of both wounds,"[1]; diabetic mice, QD PO, FIG. 5C-D",effective shortening of the mean time for wound closing
same,wound closure rate,"[1]; rate analysed for Days 0-8 (with ethanol) and Days 9-12 (no ethanol), FIG. 5E",statistically relevant increase in the wound closure rate
same,"odds of closure of both wounds (hazard ratio, proportional hazard model)","[1]; relative to homozygous diabetic control Group (3), iroxanadine 10-200 mg/kg Groups (4)-(8), arimoclomol 200 mg/kg Group 9, QD PO, FIG. 4",trend of positive correlation between the odds of closure and iroxanadine administration in a dose dependent manner
same,wound healing over time (2-way ANOVA),[2],tended to show an accelerated healing in the middle stage of healing
same,body weight,"STZ-diabetic rats [3]; STZ rats, 10, 20 and 50 mg/kg p.o. daily day 8 to day 40, day 7 to day 41, FIG. 8",leveled off in body weight
same,glycemia levels,"STZ-diabetic rats [3]; STZ rats, 10, 20 and 50 mg/kg p.o. daily, day 7 and day 41, FIG. 9",lower than non-treated STZ diabetic rats
same,over-all diabetic state,"STZ-diabetic rats [3]; STZ rats, judged from body weight (FIG. 8) and glycemia (FIG. 9)",did not improve the over-all diabetic state
same,SNCV performance (nerve conduction velocity),rat caudal nerve,increase in nerve conduction velocity; also recorded: improves sensorimotor dysfunction
same,IENF density of paw skin sample,STZ-diabetic rats [4],increase of IENF density
same,IENF density of paw skin sample,STZ-diabetic rats [4]; listed as Iroxanadine,showed efficacy in preventing the loss of IENF
same,IENF levels compared with non-diabetic animals,STZ-diabetic rats [4]; STZ rats,indistinguishable from that of non-diabetic animals
